# Results are given in words; binding and its absence hold for the method and conditions named. Some results given as binding are weak or reduced against the parent protein; the word gives no strength.
# By UniProt entry, the sequences of proteins in these tests, tags left out. Residues count along the entry.
# UniProt O00567, residues 1-411: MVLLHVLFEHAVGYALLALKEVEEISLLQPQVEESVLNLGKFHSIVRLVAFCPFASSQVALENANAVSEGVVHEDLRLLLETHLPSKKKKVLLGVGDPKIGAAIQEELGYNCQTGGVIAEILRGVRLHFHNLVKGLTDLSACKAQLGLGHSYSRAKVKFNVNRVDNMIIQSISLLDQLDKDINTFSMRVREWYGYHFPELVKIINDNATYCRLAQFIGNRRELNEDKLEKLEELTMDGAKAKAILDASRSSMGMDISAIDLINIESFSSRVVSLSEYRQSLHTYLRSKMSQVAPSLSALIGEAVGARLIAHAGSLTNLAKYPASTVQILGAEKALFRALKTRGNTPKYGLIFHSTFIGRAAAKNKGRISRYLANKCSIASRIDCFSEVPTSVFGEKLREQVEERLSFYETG
# B1: Homo sapiens NOP58 (amino acids 1 to 401) (domain or fragment, UniProt Q9Y2X3 1-401)
# chain: MLVLFETSVGYAIFKVLNEKKLQEVDSLWKEFETPEKANKIVKLKHFEKFQDTAEALAAFTALMEGKINKQLKKVLKKIVKEAHEPLAVADAKLGGVIKEKLNLSCIHSPVVNELMRGIRSQMDGLIPGVEPREMAAMCLGLAHSLSRYRLKFSADKVDTMIVQAISLLDDLDKELNNYIMRCREWYGWHFPELGKIISDNLTYCKCLQKVGDRKNYASAKLSELLPEEVEAEVKAAAEISMGTEVSEEDICNILHLCTQVIEISEYRTQLYEYLQNRMMAIAPNVTVMVGELVGARLIAHAGSLLNLAKHAASTVQILGAEKALFRALKSRRDTPKYGLIYHASLVGQTSPKHKGKISRMLAAKTVLAIRYDAFGEDSSSAMGVENRAKLEARLRTLEDR
# B2: Homo sapiens fibrillarin (amino acids 83 to 316), without the GAR domain (domain or fragment, UniProt P22087 83-316)
# chain: GKNVMVEPHRHEGVFICRGKEDALVTKNLVPGESVYGEKRVSISEGDDKIEYRAWNPFRSKLAAAILGGVDQIHIKPGAKVLYLGAASGTTVSHVSDIVGPDGLVYAVEFSHRSGRDLINLAKKRTNIIPVIEDARHPHKYRMLIAMVDVIFADVAQPDQTRIVALNAHTFLRNGGHFVISIKANCIDSTASAEAVFASEVKKMQQENMKPQEQLTLEPYERDHAVVVGVYRPP
# B3: Homo sapiens 15.5 K (protein, UniProt P55769 1-128)
# chain: MTEADVNPKAYPLADAHLTKKLLDLVQQSCNYKQLRKGANEATKTLNRGISEFIVMAADAEPLEIILHLPLLCEDKNVPYVFVRSKQALGRACGVSRPVIACSVTIKEGSQLKQQIQSIQQSIERLLV
# Target: Homo sapiens NOP56 (amino acids 1 to 411), histidine-tagged (Homo sapiens) (UniProt O00567)
# Test: co-purification after co-expression (Ni-NTA affinity, gel filtration); human NOP56 1-411 (single histidine tag), NOP58 1-401, fibrillarin 83-316, 15.5 K and tRNA-U14 RNA co-expressed in E. coli Nico21 (DE3); lysis buffer 25 mM Na2HPO4 pH 7.6, 500 mM NaCl, 10% glycerol, 0.5% Triton X-100; Ni-NTA (50 mM imidazole wash, 250 mM elution), then Superdex 200; proteins identified by SDS-PAGE (Coomassie) and mass spectroscopy
row,Binder,binding
1,B1,binds
2,B2,binds
3,B3,binds weakly

# Reference: publication PMC4117494
